Data published in patent US20110236427A1, “Antagonists of NR2F6 For Augmenting The Immune Response” (Medizinische Universitat Innsbruck, priority 2008, published 2011).
At least one structure is not confirmed: it was looked up by name or label, or the drawing left a doubt.

What was measured:
NF-AT:AP-1 DNA binding = assay: EMSA analysis of nuclear extracts from Th17 differentiated CD4+ T cells in the presence of RA; format: cell-based, mouse; conditions: RA 500 nM
NR2F6 = molecular target: T1, NR2F6 (Homo sapiens, UniProt P10588); assay: RARE renilla luciferase reporter gene assay in Jurkat T cells transfected with NR2F6; format: cell-based; conditions: RA at 20 microM
T1 construct: expressed in transfected cells; host or cells: Jurkat T cells, transient electroporation
T1 sequence (P10588 1-404): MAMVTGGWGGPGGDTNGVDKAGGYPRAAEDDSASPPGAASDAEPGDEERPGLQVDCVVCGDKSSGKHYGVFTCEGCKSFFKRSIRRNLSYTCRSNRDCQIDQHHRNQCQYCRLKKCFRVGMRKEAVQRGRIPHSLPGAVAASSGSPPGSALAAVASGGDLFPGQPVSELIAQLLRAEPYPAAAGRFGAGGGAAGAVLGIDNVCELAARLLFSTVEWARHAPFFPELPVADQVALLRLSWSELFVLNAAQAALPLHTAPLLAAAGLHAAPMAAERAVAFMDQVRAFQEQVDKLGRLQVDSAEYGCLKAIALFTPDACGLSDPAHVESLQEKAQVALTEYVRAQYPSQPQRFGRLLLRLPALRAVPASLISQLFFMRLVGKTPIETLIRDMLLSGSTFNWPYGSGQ

Th17 cells = assay: IL-17 secretion of Th17 differentiated cells treated with retinoic acid; format: cell-based, mouse; conditions: day 4, increasing amounts of RA (500 nM), Nr2f6-/- versus wild type

**Q.** `CC1=C(/C=C/C(C)=C/C=C/C(C)=C/C(=O)O)C(C)(C)CCC1` [RA, Retinoic acid] was tested. Which “NFAT DNA binding, Nr2f6-/- Th17 cells” value (NF-AT:AP-1 DNA binding; Nr2f6-/- Th17 cell nuclear extracts) did it give?
**A.** not (or at least substantially less) and not

**Q.** And the “NFAT DNA binding, wild type Th17 cells” value (NF-AT:AP-1 DNA binding; wild type Th17 cell nuclear extracts)?
**A.** abrogates NFAT DNA binding

**Q.** And the “activity at NR2F6” value (NR2F6)?
**A.** low-affinity agonist

**Q.** And the “RA-mediated immunesuppression of IL-17 secretion, Nr2f6-/- Th17 T cells” value (Th17 cells)?
**A.** substantially resistant
